The results in this text go back to PMC8782398.

Protein sequences, listed by entry. Tags and fused reporters are not part of them. Lines headed by an entry give the natural chain unless they say otherwise; changes in a name come on top.
UniProt P35372: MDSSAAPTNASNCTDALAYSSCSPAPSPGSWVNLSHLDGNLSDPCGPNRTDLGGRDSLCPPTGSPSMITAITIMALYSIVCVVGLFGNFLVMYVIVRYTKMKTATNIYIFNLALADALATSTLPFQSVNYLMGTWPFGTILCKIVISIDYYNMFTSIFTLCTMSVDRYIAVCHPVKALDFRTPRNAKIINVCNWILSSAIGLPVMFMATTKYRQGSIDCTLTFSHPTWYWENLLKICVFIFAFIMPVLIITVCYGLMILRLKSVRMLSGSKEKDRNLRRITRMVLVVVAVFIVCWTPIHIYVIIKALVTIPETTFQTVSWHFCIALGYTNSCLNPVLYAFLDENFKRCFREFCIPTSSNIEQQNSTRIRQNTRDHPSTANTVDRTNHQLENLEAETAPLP
UniProt Q13519: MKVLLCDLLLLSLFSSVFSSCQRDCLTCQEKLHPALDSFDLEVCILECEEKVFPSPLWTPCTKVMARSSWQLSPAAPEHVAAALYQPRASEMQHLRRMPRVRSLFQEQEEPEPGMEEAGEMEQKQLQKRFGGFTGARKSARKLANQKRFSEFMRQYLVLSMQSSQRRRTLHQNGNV

Results are given in words; binding and its absence hold for the method and conditions named.

For the assay, the target named is human MOP receptor in HEK293 cells (human) (UniProt P35372). Nature of the assay: radioligand binding; only the binder purified.

For “Nociceptin/Orphanin FQ (from UniProt Q13519 130-146) (peptide)”, the binding entry is on record as “no binding”.
